The supplement of paper PMC3334620
The full ranking holds about 33,000 sequences; the median of “E-score (-0.5 to 0.5)” is about -0.0059, and the highest 2% start at about 0.26. The list shows a part of the results.

Molecular target: T1, Cin5 (UniProt P40917)
T1 sequence: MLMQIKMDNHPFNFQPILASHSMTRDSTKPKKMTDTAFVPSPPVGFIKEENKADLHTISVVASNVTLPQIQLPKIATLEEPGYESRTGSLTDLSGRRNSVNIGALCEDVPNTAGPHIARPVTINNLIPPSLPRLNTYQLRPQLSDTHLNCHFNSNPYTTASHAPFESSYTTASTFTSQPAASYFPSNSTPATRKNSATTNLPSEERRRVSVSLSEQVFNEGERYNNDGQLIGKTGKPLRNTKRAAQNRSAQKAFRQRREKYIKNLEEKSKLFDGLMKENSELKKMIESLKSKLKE
Assay: PBM E-score (8-mer binding enrichment) (E-score (-0.5 to 0.5)); higher = stronger / more preferred TF binding
Details: protein concentration: 100 nM; construct: GST-full length
Procedure: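 Universal 'all 10-mer' protein binding microarrays (Agilent AMADID 015681) probed with GST-tagged S. cerevisiae TFs (full-length or DBD) made by in vitro transcription/translation (PURExpress), about 100-200 nM. Bound TF was detected with fluorescent anti-GST. Each ungapped 8-mer (which stands for itself and its reverse complement) is scored by the PBM enrichment score (E-score), a modified Wilcoxon-Mann-Whitney statistic from -0.5 to +0.5, computed with the Universal PBM Analysis Suite. Scale: above 0.35 generally sequence-specific binding.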

Sequence	PBM E-score
ACGACAAG	0.0721
GACAGTCC	-0.247
GTCAAAAA	-0.0603
CTTCGAGA	-0.103
CCTAGTCA	-0.0868
AAAGTGAC	-0.0856
GTATGGCA	0.0394
GTCAGCTA	0.083
CAGTATCA	0.0369
ATGCCACG	0.00813
AGAGGCAC	-0.115
CAGTTCAC	-0.00711
GTGCGCGA	-0.0112
CACACAAA	0.134
ATTAACAG	0.0268
ATATTGTG	0.107
TAACTGAA	0.0738
CTGAGCTA	-0.156
ACTTTTCG	0.0911
TTAGAAAA	0.0447
ACCACGGA	-0.136
GCAGTGCA	-0.0723

Sequence	PBM E-score
CACTTGTA	0.05
CCTGGCAG	-0.129
CCGTGGAA	0.0574
TATGCTGA	0.083
ACTGCAAA	0.0431
CCCTAACC	-0.11
CCTACTAA	0.0518
TGCGAGAA	-0.0508
CCGGTTCC	-0.05
ACTTATCG	0.071
CGAGCCCG	-0.212
CAACATTA	0.233
ACGTCGAC	-0.0163
ACCACTCT	-0.113
ATACCAAG	0.0673
ACTCCTAC	-0.0496
AGACTCGG	-0.315
CTGCCCAC	-0.151
GCATAAGC	0.276
CCCAGAGA	-0.106
ACCATACC	-0.0386
AATATACC	0.225

Sequence	PBM E-score
CATGTGTC	-0.0117
ACGAGGAG	-0.177
AAGTGGGC	0.0808
AAAAGTTT	0.00197
CCCTACGA	-0.0634
CGACCTCA	-0.0328
ATGAACCA	0.184
ATCAGCAT	0.18
ATCTTGAA	-0.0556
ACAGGGTC	-0.0638
AGGGTACA	0.0077
CGTCTTAA	-0.137
GTTTATGA	0.0759
CTTTTACC	0.0816
CTCTGGCA	-0.233
AATCAGCC	0.119
TTCTTCAA	0.0318
CTGTTGTC	0.0655
TAAGATAA	-0.0435
CAGTGAGA	-0.0414
CGCTTTTC	-0.0646
GACAAGAC	-0.0414

Looked up above.
Value for GTTTATGA under PBM E-score: 0.0759
Value for CGTCTTAA under PBM E-score: -0.137
Value for ATCAGCAT under PBM E-score: 0.18
Value for CAGTGAGA under PBM E-score: -0.0414
Value for CTGTTGTC under PBM E-score: 0.0655

Remaining list, next part.

Sequence	PBM E-score
TCCAAACA	-0.121
AACGTTGT	-0.00831
CGAAGACG	-0.0228
CGATGTGA	-0.00227
ATACCTGG	-0.183
AGCTTCTC	-0.0429
GAACTTAC	0.106
GGTGGCGA	-0.033
CACATACC	-0.111
CGGACAAA	0.0503
GTCACGAA	0.0162
AGTCGGTC	-0.138
AATGTTAC	0.0791
CGGTCTTA	-0.281
AAAACGGC	0.0328
CGGAACAA	0.302
CTGGACGA	-0.129
CGTGGGCC	-0.176
AGCAAAAT	0.0722
ATGTGCAG	-0.072
